# Experimental data reported in the supplement of paper PMC8256030.
# Several values for one entry are separate records, joined by “and”; a condition that tells them apart may be missing. Identical values can stand only once. Counter-ions that a name gives are not always drawn. This is one part of the list. This data set is noisy: repeats of one test often differ as much as different tests do.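 HEK293T cells were given each compound shortly before transfection with a reporter in which red mCherry is followed by the SARS-CoV-2 frameshift element and then GFP in the −1 frame, so GFP appears only after frameshifting.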
# Test system: SARS-CoV-2 -1 PRF reporter mCherry-FSE-GFP(-1)
# Experiment: mCherry (red) intensity as percent of control; higher = higher upstream reporter expression
# Conditions: 10 µM; 24 h; HEK293T
row,Structure (SMILES),mCherry
1,C[C@@H]1CN([C@H]2CC[C@](C#N)(c3ccc(F)cc3)CC2)CC[C@]1(C(=O)O)c1ccccc1 [levocabastine],95.3%
2,CCOC(=O)Nc1ccc(NCc2ccc(F)cc2)cc1N [retigabine],96.5%
3,CC[C@H]1[C@@H]2C[C@H]3[C@@H]4N(C)c5ccccc5[C@]45C[C@@H]([C@@H]2[C@H]5O)N3[C@@H]1O [Ajmaline],76.5%
4,C[C@H](N)Cc1ccccc1 [dexamfetamine],103%
5,CCOC(=O)C(c1c(O)c2ccccc2oc1=O)c1c(O)c2ccccc2oc1=O [ethyl biscoumacetate],60.4%
6,C=CCN1CC[C@]23c4c5ccc(O)c4O[C@H]2[C@@H](O)C=C[C@H]3[C@H]1C5 [nalorphine],99.9%
7,CCC1(CC)C(=O)NCC(C)C1=O (stereo not given) [methyprylon],116%
8,C=C[C@H]1CN2CC[C@H]1C[C@@H]2[C@@H](O)c1ccnc2ccccc12,123%
9,Cc1cc(C(C#N)c2ccc(Cl)cc2)c(Cl)cc1NC(=O)c1cc(I)cc(I)c1O (stereo not given) [closantel],124%
10,N[C@@H]1C[C@H]1c1ccccc1.N[C@H]1C[C@@H]1c1ccccc1,118%
11,CO[C@]12C[C@@H](COC(=O)c3cncc(Br)c3)CN(C)[C@@H]1Cc1cn(C)c3cccc2c13 [nicergoline],103% and 101%
12,O=C1CC[C@@]2(O)[C@H]3Cc4ccc(O)c5c4[C@@]2(CCN3CC2CC2)[C@H]1O5 [Naltrexone·HCl],113%
13,CC(C)c1c(CN(C)C(C)Cc2ccccc2)n(C)n(-c2ccccc2)c1=O (stereo not given) [famprofazone],109%
14,COc1cccc(C2(O)CCCCC2CN(C)C)c1 (stereo not given) [Tramadol],50.5%
15,CC[C@@H](CO)NC(=O)[C@@H]1C=C2c3cccc4c3c(cn4C)C[C@H]2N(C)C1 [Methysergide maleate],87.4%
16,CN1C[C@H](C(=O)N[C@]2(C)O[C@@]3(O)[C@@H]4CCCN4C(=O)[C@H](Cc4ccccc4)N3C2=O)C[C@@H]2c3cccc4[nH]cc(c34)C[C@H]21,96%
17,CN1C(=O)NC(=O)C(C)(C2=CCCCC2)C1=O (stereo not given) [hexobarbital],86.5%
18,CN1C(=O)CC(=O)N(c2ccccc2)c2cc(Cl)ccc21 [clobazam],69.6%
19,Cc1cccc([C@H](C)c2c[nH]cn2)c1C [dexmedetomidine],104%
20,O=[N+]([O-])c1ccc([As](=O)(O)O)cc1 [nitarsone],102%

row,Structure (SMILES),mCherry
1,CN1C[C@@H](NS(=O)(=O)N(C)C)C[C@@H]2c3cccc4c3c(cn4C)C[C@H]21 [mesulergine],83.6%
2,Cc1ccc2c(c1)C1CN(C)CCC1N2 (stereo not given) [dicarbine],128%
3,Nc1nc(N)nc(NC2CC2)n1 [cyromazine],116%
4,Cc1ncsc1CCCl [clomethiazole],102%
5,CCCCC(C#N)(Cn1cncn1)c1ccc(Cl)cc1 (stereo not given) [Myclobutanil],54.9%
6,O=C(O)C(=O)c1cn(Cc2ccccc2)c2ccc(-c3ccc(OC(F)(F)F)cc3)cc12 [tiplasinin],84.7%
7,CCOC(=O)c1cncn1[C@H](C)c1ccccc1 [etomidate],93.1%
8,C=CCN1CC[C@]23CCCC[C@H]2[C@H]1Cc1ccc(O)cc13 [levallorphan],65.4%
9,C#C[C@]1(O)CC[C@H]2[C@@H]3CCC4=C[C@@H](O)CC[C@@H]4[C@H]3CC[C@@]21C [etynodiol],54.6%
10,C[C@@H]1O[C@@H](O[C@@H]2C=C3CC[C@@H]4[C@H](CC[C@]5(C)[C@@H](c6ccc(=O)oc6)CC[C@]45O)[C@@]3(C)CC2)[C@H](O)[C@H](O)[C@H]1O [proscillaridin],14.8%
11,c1ccc2c(c1)sc1ccccc12,102%
12,CCC[C@@H]1CC2=CC(=O)CC[C@]2(C)[C@H]2CC[C@@]3(C)[C@@H](CC[C@@]3(O)CCC(=O)O)[C@H]12 [oxprenoate],105%
13,N.N.[Cl][Pt][Cl],98.6%
14,O=C(O)c1nn(Cc2ccc(Cl)cc2Cl)c2ccccc12 [lonidamine],99.6%
15,C[C@]12CCC(=NOCCN)C[C@@H]1C(=O)C[C@@H]1[C@@H]2CC[C@]2(C)C(=O)CC[C@@H]12 [istaroxime],10.5%
16,CCc1cc2c(s1)N(C)C(=O)CN=C2c1ccccc1Cl [clotiazepam],99.9%
17,CN1CCc2cc3c(cc2C1O)OCO3 (stereo not given),131%
18,CCN(CC)C(=O)N[C@H]1C=C2c3cccc4[nH]cc(c34)C[C@H]2N(C)C1 [lisuride],114%
19,C[C@@H]1CC[C@H]2[C@@H](C)C(=O)O[C@@H]3O[C@@]4(C)CC[C@@H]1[C@]32OO4 [Artemisinin],72%
20,CC1C=CC=CCCC=CC=CC=CC=CC(OC2OC(C)C(O)C(N)C2O)CC2OC(O)(CC(O)C(O)CCC(O)CC(O)CC(O)CC(=O)OC(C)C(C)C1O)CC(O)C2C(=O)O (stereo not given) [Nystatin],74.3%
